In article PMC5053603:
No constants are given. Whether binding was seen depends on the method and setting. Binding seen in cells or lysates may run through a third protein. Some results given as binding are weak or reduced against the parent protein; the word gives no strength.

Sequences of proteins named here, by UniProt entry; tags and fusion partners are left off.
UniProt P11413: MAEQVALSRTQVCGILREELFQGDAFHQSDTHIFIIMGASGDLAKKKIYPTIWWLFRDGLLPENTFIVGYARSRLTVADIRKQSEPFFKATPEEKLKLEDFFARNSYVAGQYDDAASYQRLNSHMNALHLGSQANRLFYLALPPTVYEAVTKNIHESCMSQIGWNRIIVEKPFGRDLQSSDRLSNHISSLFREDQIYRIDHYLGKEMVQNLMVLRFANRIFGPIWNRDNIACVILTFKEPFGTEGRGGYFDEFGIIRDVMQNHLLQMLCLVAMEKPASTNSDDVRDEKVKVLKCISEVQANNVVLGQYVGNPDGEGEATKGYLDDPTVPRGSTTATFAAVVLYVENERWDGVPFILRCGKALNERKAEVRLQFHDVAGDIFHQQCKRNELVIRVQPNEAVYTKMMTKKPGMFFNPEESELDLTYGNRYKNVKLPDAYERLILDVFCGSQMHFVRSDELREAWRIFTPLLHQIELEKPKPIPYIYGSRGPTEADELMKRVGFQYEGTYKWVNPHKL

T1: SIRT2 (human (endogenous in U87-MG)) (UniProt Q8IXJ6)
T1 sequence: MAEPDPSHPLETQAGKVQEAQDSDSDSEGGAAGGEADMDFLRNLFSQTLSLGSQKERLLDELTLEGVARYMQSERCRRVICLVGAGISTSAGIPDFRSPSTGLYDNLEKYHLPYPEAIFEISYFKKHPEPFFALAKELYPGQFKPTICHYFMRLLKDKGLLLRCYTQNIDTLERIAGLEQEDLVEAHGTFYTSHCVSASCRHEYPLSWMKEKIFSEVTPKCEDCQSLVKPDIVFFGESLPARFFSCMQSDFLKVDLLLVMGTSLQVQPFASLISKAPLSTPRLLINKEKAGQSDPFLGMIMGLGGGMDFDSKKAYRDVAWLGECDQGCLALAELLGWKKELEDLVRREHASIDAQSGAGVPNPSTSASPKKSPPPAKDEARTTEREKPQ

B1: SIRT2 (enzyme, UniProt Q8IXJ6 1-389)
chain: T1 sequence

Columns and labels:
[1] = target: T1, SIRT2 (human (endogenous in U87-MG)); assay: co-IP; inverse co-immunoprecipitation of the endogenous proteins in U87 cell lysate (NP-40 buffer), antibody then Protein-A beads at 4°C, western blot; control and HSPB1-knockdown cells (Fig 4F)
[2] = target: glucose 6-phosphate dehydrogenase (human (endogenous in U87-MG)) (UniProt P11413); assay: co-IP; endogenous proteins in U87 cell lysate (NP-40 buffer: 50 mM Tris-HCl pH 7.6, 150 mM NaCl, 0.5% NP-40), antibody then Protein-A beads at 4°C, western blot; control and HSPB1-knockdown cells (Fig 4E)

| Molecule | binding [1] | binding [2] |
| --- | --- | --- |
| glucose 6-phosphate dehydrogenase (from UniProt P11413 1-515) (enzyme) | binds | – |
| B1 | – | binds |
